A short description of series [1]: Photolysis of BODIPY prodrugs in solution, analysed by HPLC. In kind it is physicochemical. The note with it: 690 nm, 100 mW/cm^2, 5 min, 0.1 equiv. Os(bptpy)2^2+, N2-saturated solution. The procedure: BODIPY photocage was conjugated with the free drug molecules to form photoactivable prodrugs with photolabile linkages, including ester and carbamate. The light illumination was performed with a NIR lamp, of which the parameters were 100 mW/cm^2, 690 nm for 5 min, in a N2-saturated solution containing 0.1 equiv. of Os(bptpy)2^2+ and 1 equiv. of prodrugs. […] In addition, the photocage was conjugated with drug molecules with amine groups to produce prodrugs with photolabile carbamate bonds.
The photolysis efficiency of BODIPY prodrugs were compared in different conditions, including different excitation wavelengths (690 nm or 530 nm), different ratios of Os(bptpy)2^2+, and different oxygen contents. […] The solvent was 88% methanol mixed by 10% dichloromethane and 2% acetone. For the N2-saturated groups, after dissolving the molecules, the solution was degassed with a vacuum pump for 10 min followed by gentle N2 blowing. After light irradiation, the resulted mixtures were refilled to 100 μL with methanol to avoid the error caused by solvent evaporation. The resulted solution was loaded onto the sampler and analyzed by high-performance liquid chromatography. An elution method was used to separate free drug, BODIPY photocage and prodrug on the C18 column.

Series [2] in a line: Photoreaction quantum yields and cross sections (HPLC, Reinecke's salt actinometry). In kind it is physicochemical. The note with it: λex 690 nm, 0.1 eq Os, N2.

`COc1ccc2cc([C@H](C)C(=O)OCC3=C4C(C)=C(I)C(C)=[N+]4[B-](C)(C)n4c(C)c(I)c(C)c43)ccc2c1` [BODIPY-NPX, BODIPY-naproxen]: the “photolytic yield (yield of free drug)” value in series [1] stood at 84.32±5.79%. In series [2], the “Quantum yield of drug release Φr” value stood at 0.73 ± 0.05% and the “Quantum yield of prodrug photolysis Φp” value amounted to 0.85 ± 0.02%. For the same compound, in series [2] (ε of Os(bptpy)2·2PF6 at 688 nm), the “Cross section Φpε(λex)” value turned out to be 227.15 ± 4.42 M⁻¹ cm⁻¹ and the “Cross section Φrε(λex)” value was 194.19 ± 13.33 M⁻¹ cm⁻¹.

Source of the values: US20250000979A1, “TRIPLET-TRIPLET ENERGY TRANSFER WITH LIGHT EXCITATION AT LONG WAVELENGTHS AND METHODS THEREOF” (priority 2023, published 2025).
